The source of these data is article PMC4831018.

The chains behind the UniProt entries cited, without tags or fusion partners. Where a name states a change or a piece, a line headed by the entry shows the natural chain unless it says otherwise.
UniProt B9PY91: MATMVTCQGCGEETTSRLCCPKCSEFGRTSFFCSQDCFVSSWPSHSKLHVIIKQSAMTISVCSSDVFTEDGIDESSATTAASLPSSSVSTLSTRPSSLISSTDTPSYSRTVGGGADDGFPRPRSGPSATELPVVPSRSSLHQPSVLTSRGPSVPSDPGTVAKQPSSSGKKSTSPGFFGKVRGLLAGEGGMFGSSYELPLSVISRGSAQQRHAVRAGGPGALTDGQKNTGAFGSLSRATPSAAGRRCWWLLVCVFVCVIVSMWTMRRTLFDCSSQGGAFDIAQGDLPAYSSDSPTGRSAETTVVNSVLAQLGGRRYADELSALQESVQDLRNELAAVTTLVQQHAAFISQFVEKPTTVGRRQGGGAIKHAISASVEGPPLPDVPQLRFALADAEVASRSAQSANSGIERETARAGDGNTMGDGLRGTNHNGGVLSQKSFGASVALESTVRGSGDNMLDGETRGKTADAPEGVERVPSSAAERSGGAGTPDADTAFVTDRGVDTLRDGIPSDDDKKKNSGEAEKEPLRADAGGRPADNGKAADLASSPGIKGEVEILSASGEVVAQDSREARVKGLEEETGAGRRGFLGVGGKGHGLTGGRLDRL

This assay deals with TgVps29-cMyc (Toxoplasma gondii). Nature of the assay: co-IP; reverse immunoprecipitation from total detergent extracts of knock-in TgVps35-HA, TgVps29-cMyc or TgVps26-HA parasites; western blot; negative control with naïve sera. In general terms: Immunoblotting shows a protein as a band on a membrane.

These are yes or no findings as the source states them, for the method shown. In cells and extracts the contact can be indirect. A result given as binding can be weak or reduced; the word gives no strength.

With TgHP12 (from UniProt B9PY91), the binding result is listed as “binds”.
